From PMC3517461 come the findings set out here.

The chains behind the UniProt entries cited, without tags or fusion partners. Residues count along the entry.
UniProt O75460, residues 19-977: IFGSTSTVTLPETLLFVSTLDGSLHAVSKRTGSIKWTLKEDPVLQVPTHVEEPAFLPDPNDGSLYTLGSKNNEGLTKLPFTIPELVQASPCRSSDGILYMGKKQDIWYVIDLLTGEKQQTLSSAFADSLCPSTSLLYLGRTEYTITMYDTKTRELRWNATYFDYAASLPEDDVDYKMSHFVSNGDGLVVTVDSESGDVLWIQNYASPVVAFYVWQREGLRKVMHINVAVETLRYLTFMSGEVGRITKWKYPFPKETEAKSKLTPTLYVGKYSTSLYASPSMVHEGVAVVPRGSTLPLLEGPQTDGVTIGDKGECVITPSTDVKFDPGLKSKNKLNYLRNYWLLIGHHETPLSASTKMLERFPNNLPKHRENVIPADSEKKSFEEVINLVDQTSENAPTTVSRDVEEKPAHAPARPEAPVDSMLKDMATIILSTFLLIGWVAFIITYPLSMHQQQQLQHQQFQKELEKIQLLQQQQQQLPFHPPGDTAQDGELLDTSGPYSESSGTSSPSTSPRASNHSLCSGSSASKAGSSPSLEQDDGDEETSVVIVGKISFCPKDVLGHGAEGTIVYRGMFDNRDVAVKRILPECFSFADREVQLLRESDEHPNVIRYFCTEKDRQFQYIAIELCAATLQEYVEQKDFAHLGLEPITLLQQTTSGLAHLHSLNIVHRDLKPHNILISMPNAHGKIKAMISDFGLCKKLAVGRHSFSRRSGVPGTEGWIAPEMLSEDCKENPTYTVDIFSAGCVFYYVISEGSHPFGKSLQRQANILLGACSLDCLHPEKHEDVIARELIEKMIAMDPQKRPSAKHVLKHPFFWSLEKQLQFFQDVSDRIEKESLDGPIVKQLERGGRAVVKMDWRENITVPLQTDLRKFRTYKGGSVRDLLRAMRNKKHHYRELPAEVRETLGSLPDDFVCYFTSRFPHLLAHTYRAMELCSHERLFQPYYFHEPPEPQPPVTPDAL

This assay deals with human IRE1α, 3x HA-tagged (pCAG-hIRE1α-HA), wild type (human) (UniProt O75460). The assay is described as follows: co-IP; HEK293T cells co-transfected with Flag-tagged model protein and HA-tagged IRE1; lysis in TNE buffer (10 mM Tris-HCl pH 7.5, 1% NP-40, 150 mM NaCl, 1 mM EDTA); anti-HA (12CA5) immunoprecipitation on protein G Sepharose; anti-Flag Western blot.

Results are given in words; binding and its absence hold for the method and conditions named. In cells and extracts the contact can be indirect. Where a sequence is shown, tags or fusion partners need not be part of it.

B1: mouse Amy1, 3x Flag-tagged (pCAX-mAmy1-Flag) (protein, UniProt P00687 16-511)
chain: QYDPHTQYGRTAIVHLFEWRWVDIAKECERYLAPNGFAGVQVSPPNENIVVHSPSRPWWERYQPISYKICSRSGNEDEFRDMVNRCNNVGVRIYVDAVINHMCGVGAQAGQSSTCGSYFNPNNRDFPGVPYSGFDFNDGKCRTASGGIENYQDAAQVRDCRLSGLLDLALEKDYVRTKVADYMNHLIDIGVAGFRLDASKHMWPGDIKAILDKLHNLNTKWFSQGSRPFIFQEVIDLGGEAVSSNEYFGNGRVTEFKYGAKLGKVMRKWDGEKMSYLKNWGEGWGLMPSDRALVFVDNHDNQRGHGAGGASILTFWDARLYKMAVGFMLAHPYGFTRVMSSYYWPRNFQNGKDVNDWVGPPNNNGKTKEVSINPDSTCGNDWICEHRWRQIRNMVAFRNVVNGQPFANWWDNDSNQVAFGRGNKGFIVFNNDDWALSETLQTGLPAGTYCDVISGDKVDGNCTGIKVYVGNDGKAHFSISNSAEDPFIAIHAESKI
Take B1: the binding result was “no binding”.
